From US6984718B2 (Cytovia, Inc., priority 1998, dated 2006) come the findings set out here.

Test system in the first data set: not listed separately
The data set can be described thus: general procedure: solution-phase peptide synthesis; EDC. The note with it: conjugation step.
On to “N-[Ac-Asp(OBut)-Glu(OBut)-Val-Asp(OBut)]-N′-pentafluorobenzoyl-Rhodamine 110 (SEQ ID NO:5)”, for which the conjugation yield is 53%. On the same count and under the same terms, under “N-[Ddz-Asp(OBut)-Glu(OBut)-Val-Asp(OBut)]-N′-pentafluorobenzoyl-Rhodamine 110 (SEQ ID NO:5)” stands 21%; under “N-[Ac-Asp(OBut)-Glu(OBut)-Val-Asp(OBut)]-N′-(2,3,4,5-tetrafluorobenzoyl)-Rhodamine 110 (SEQ ID NO:5)”, 27%. The same measure, in the same setting: under “N-[Z-Asp(OBut)-Glu(OBut)-Val-Asp(OBut)]-N′-pentafluorobenzoyl-Rhodamine 110 (SEQ ID NO:5)” stands 38%; under “N-[Ac-Asp(OEt)-Glu(OEt)-Val-Asp(OEt)]-N′-pentafluorobenzoyl-Rhodamine 110 (SEQ ID NO:5)”, 45%.

Still in this data set, the particulars now being: coupling step.
Turning to “N-[Z-Asp(OBut)-Glu(OBut)-Val-Asp(OBut)-Gly-Gly]-N′-pentafluorobenzoyl-Rhodamine 110 (SEQ ID NO:75)”, the step yield stood at 49%. Same read-out and setting: under “N-(Z-Ala-Ala-Ala-Ala)-N′-pentafluorobenzoyl-Rhodamine 110 (SEQ ID NO:77)” stands 61%; under “N-[Z-Glu(OBut)-Val-Asp(OBut)-Gly]-N′-pentafluorobenzoyl-Rhodamine 110 (SEQ ID NO:71)”, 45%. Compound “N-[Z-Asp(OBut)-Glu(OBut)-Val-Asp(OBut)-Gly]-N′-pentafluorobenzoyl-Rhodamine 110 (SEQ ID NO:5)” registered a step yield of 78%.

The data set is the same for the next values; noted with them: late stage modification step.
Regarding “N-(Z-Asp-Glu-Val-Asp)-N′-pentafluorobenzoyl-Rhodamine 110 (SEQ ID NO:5)”, the step yield is 100%.

As to “N—[H2N-Asp(OBut)-Glu(OBut)-Val-Asp(OBut)]-N′-pentafluorobenzoyl-Rhodamine 110 (SEQ ID NO:5)”, the step yield came to 78%. The same measure, in the same setting: under “N-(Z-Asp-Glu-Val-Asp)-N′-(2,4-bis(dodecanemercapto)-3,5,6-trifluorobenzoyl)Rhodamine 110 (SEQ ID NO:5)” stands 84%; under “N-(Z-Asp-Glu-Val-Asp-Gly-Gly)-N′-pentafluorobenzoyl-Rhodamine 110 (SEQ ID NO:75)”, 98%; under “N-(Ac-Asp-Glu-Val-Asp)-N′-(2,3,4,5-tetrafluorobenzoyl)-Rhodamine 110 (SEQ ID NO:5)”, 99%.

In turn, “N-(Octanoyl-Asp-Glu-Val-Asp)-N′-pentafluorobenzoyl -Rhodamine 110 (SEQ ID NO:5)” yielded a step yield of 96%. “N-(Z-Asp-Glu-Val-Asp-Gly)-N′-pentafluorobenzoyl-Rhodamine 110 (SEQ ID NO:76)” showed a step yield of 91%. The same measure, in the same setting: the same measure for “N-(Pentafluorobenzoyl-Asp-Glu-Val-Asp)-N′-pentafluorobenzoyl-Rhodamine 110 (SEQ ID NO:5)”: 35%; for “N-[Pentafluorobenzoyl-Asp(OBut)-Glu(OBut)-Val-Asp(OBut)]-N′-pentafluorobenzoyl-Rhodamine 110 (SEQ ID NO:5)”: 40%; for “N-(Ac-Asp-Glu-Val-Asp)-N′-pentafluorobenzoyl-Rhodamine 110 (SEQ ID NO:5)”: 89%/.

The data set is the same for the next values; noted with them: late stage modification step, HBr.
Turning to “N-(Asp-Glu-Val-Asp)-N′-pentafluorobenzoyl-Rhodamine 110 HBr (SEQ ID NO:5)”, the step yield is given as 92%.

Staying with this data set, now noted: lipidation step.
“N-[Octanoyl-Asp(OBut)-Glu(OBut)-Val-Asp(OBut)]-N′-pentafluorobenzoyl-Rhodamine 110 (SEQ ID NO:5)” registered a step yield of 64%. Compound “N-[Z-Asp(OBut)-Glu(OBut)-Val-Asp(OBut)]-N′-(2,4-bis(dodecanemercapto)-3,5,6trifluorobenzoyl)-Rhodamine 110 (SEQ ID NO:5)” showed a step yield of 82%.

Another data set has as its system HL-60 cells. The data set is described as follows: Staining of HL-60 cells with dye, epifluorescence microscopy. The conditions noted are these: 10 μM dye. The format is cell-based.
`Nc1ccc2c(c1)Oc1cc(NC(=O)c3c(F)c(F)c(F)c(F)c3F)ccc1C21OC(=O)c2ccccc21` (stereo not drawn) [N-pentafluorobenzoyl-Rhodamine 110, N-Pentafluorobenzoyl-Rhodamine 110]: the “viewing period during which signal intensity remained constant” value is recorded as “at least 15 minutes”.

Still in this data set, the particulars now being: 10 μM dye, 2 hours at 37° C.
Regarding `Nc1ccc2c(c1)Oc1cc(NC(=O)c3c(F)c(F)c(F)c(F)c3F)ccc1C21OC(=O)c2ccccc21` (stereo not drawn) [N-pentafluorobenzoyl-Rhodamine 110, N-Pentafluorobenzoyl-Rhodamine 110], the “fluorescent signal emitted by stained cells” value is on record as “strong yellowish-green fluorescent signal”. Same read-out and setting: the same measure for `Cl.N=c1ccc2c(-c3ccccc3C(=O)O)c3ccc(N)cc3oc-2c1` [Rhodamine 110, reference compound]: “strong yellowish-green fluorescent signal”.

The data set is the same for the next values; noted with them: 10 μM dye, resuspended in fresh medium without dye.
For `Nc1ccc2c(c1)Oc1cc(NC(=O)c3c(F)c(F)c(F)c(F)c3F)ccc1C21OC(=O)c2ccccc21` (stereo not drawn) [N-pentafluorobenzoyl-Rhodamine 110, N-Pentafluorobenzoyl-Rhodamine 110], the “retention of fluorescent signal in cells over time” value was “well retained by the cells”.

In the case of `Cl.N=c1ccc2c(-c3ccccc3C(=O)O)c3ccc(N)cc3oc-2c1` [Rhodamine 110, reference compound], the “retention of fluorescent signal in cells over time” value is “rapidly faded with time”.
